# Assay results: the supplement of paper PMC12067093, “Discovery and optimisation of a covalent ligand for TRIM25 and its application to targeted protein ubiquitination” (Chemical Science, 2025)
# Amino acid sequences for entries named in this document (tags omitted). A change or cut given only in a name is not applied to a line headed by its entry.
# UniProt Q9BY42: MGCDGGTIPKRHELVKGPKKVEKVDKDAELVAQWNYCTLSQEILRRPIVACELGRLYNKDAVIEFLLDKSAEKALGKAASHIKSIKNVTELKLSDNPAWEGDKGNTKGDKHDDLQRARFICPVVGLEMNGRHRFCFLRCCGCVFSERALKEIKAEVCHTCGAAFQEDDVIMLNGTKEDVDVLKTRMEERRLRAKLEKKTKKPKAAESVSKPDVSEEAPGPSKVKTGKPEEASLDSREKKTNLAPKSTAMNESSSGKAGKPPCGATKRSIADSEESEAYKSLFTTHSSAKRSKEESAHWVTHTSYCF
# UniProt Q5JTH9: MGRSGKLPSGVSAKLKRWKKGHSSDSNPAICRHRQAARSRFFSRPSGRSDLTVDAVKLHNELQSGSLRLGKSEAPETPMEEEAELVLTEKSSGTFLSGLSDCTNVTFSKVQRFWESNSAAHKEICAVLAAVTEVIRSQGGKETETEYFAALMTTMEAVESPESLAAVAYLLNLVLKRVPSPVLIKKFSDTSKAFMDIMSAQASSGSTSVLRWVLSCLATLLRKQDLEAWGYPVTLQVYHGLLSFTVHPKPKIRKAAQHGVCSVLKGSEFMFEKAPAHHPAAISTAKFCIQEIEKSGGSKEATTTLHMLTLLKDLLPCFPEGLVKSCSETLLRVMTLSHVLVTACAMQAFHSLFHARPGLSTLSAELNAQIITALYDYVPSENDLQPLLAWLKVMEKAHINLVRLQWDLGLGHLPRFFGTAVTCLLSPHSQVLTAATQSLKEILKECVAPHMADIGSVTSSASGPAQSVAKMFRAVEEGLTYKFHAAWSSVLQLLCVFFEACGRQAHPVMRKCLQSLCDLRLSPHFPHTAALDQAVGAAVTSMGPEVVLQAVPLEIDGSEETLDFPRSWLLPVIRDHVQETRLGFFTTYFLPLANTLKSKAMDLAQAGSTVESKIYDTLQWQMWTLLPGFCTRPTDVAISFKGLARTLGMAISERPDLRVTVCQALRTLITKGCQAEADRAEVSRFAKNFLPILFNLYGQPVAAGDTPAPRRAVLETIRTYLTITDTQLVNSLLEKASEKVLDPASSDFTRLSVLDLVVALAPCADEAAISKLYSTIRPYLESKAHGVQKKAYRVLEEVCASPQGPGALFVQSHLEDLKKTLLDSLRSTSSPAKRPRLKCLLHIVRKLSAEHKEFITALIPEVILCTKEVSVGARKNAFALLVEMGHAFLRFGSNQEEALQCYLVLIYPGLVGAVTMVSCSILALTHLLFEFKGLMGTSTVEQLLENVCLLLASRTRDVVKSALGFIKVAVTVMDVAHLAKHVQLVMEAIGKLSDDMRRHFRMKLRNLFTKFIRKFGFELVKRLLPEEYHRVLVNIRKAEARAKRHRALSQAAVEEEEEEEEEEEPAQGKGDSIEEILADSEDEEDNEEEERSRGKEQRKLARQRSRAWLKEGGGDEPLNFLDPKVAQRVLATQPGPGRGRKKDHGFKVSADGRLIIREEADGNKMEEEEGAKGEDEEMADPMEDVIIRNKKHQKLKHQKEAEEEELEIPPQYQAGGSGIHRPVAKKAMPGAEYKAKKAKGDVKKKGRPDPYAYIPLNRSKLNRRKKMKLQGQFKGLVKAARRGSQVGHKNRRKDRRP
# UniProt O95197: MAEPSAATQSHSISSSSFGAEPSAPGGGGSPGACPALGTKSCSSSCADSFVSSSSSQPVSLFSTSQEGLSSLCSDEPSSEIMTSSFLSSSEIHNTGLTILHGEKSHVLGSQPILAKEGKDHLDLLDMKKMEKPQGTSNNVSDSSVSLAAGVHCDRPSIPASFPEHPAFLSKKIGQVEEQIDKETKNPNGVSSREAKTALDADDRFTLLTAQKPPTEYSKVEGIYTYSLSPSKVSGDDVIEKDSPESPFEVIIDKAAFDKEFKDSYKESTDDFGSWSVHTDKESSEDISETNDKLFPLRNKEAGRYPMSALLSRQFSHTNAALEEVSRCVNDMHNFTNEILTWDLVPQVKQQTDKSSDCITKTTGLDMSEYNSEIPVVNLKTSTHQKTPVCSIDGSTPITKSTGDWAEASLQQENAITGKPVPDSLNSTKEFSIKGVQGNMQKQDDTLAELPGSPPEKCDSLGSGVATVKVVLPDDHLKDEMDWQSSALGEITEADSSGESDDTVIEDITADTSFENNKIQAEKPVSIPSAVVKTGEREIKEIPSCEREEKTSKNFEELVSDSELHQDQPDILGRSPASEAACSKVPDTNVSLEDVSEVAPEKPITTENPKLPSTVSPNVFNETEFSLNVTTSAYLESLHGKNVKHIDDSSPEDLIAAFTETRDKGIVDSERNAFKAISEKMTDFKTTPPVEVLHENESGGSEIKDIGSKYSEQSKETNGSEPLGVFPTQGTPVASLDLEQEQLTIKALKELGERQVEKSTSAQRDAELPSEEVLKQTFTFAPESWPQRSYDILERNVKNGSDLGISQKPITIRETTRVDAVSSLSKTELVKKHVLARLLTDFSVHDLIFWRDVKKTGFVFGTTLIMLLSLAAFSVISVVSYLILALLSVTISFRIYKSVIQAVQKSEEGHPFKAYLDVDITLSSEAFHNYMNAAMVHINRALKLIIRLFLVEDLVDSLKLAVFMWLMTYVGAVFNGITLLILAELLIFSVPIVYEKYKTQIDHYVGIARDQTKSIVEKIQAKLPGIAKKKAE
# UniProt Q9P2E9: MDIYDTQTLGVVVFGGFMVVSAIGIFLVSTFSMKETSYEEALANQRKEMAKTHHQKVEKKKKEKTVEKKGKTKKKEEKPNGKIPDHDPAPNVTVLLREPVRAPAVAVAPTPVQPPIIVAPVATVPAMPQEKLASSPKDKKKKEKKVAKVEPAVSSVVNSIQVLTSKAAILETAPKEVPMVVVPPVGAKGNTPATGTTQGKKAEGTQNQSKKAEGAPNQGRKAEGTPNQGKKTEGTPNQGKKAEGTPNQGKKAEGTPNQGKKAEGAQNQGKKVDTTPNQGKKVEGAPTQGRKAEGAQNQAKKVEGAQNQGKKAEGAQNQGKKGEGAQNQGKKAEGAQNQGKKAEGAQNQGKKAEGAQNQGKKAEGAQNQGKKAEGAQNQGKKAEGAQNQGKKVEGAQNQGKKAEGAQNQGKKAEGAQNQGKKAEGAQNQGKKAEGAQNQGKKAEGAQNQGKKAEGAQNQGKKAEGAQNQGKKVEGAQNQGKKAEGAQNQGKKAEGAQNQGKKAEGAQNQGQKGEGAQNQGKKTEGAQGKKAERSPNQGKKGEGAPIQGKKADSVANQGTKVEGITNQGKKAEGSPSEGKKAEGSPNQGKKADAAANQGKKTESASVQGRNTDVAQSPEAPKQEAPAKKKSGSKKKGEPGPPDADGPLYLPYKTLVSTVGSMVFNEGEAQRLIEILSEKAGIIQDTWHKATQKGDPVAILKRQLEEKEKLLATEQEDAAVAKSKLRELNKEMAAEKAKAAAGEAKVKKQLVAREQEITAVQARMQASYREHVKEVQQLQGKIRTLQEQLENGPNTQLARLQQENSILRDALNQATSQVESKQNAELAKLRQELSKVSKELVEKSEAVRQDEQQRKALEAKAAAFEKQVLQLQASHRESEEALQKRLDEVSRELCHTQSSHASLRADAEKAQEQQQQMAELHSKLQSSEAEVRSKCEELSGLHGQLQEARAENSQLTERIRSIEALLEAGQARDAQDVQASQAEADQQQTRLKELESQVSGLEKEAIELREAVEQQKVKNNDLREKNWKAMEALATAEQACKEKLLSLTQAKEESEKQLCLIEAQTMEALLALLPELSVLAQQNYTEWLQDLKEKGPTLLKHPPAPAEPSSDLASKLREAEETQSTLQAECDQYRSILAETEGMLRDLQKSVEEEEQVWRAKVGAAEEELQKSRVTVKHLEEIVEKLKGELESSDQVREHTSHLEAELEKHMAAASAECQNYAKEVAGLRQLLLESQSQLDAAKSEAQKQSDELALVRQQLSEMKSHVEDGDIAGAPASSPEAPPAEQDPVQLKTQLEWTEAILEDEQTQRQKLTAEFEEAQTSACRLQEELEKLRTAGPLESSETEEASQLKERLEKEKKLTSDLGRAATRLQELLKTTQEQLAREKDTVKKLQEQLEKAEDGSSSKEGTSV
# UniProt O75818: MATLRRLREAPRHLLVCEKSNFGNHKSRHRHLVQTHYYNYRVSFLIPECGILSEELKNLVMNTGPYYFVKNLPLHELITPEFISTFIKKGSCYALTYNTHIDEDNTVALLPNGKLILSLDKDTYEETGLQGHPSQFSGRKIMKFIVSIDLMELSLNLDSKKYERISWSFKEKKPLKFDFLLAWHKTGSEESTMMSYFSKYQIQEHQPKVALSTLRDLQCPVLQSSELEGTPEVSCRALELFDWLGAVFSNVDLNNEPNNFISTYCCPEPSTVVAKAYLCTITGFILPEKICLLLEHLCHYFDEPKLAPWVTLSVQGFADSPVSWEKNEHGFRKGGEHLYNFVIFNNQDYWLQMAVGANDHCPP
# UniProt P60903, whole entry: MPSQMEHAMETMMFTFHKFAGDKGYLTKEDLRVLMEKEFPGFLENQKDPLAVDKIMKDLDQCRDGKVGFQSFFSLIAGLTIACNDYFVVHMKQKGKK
# UniProt P19793: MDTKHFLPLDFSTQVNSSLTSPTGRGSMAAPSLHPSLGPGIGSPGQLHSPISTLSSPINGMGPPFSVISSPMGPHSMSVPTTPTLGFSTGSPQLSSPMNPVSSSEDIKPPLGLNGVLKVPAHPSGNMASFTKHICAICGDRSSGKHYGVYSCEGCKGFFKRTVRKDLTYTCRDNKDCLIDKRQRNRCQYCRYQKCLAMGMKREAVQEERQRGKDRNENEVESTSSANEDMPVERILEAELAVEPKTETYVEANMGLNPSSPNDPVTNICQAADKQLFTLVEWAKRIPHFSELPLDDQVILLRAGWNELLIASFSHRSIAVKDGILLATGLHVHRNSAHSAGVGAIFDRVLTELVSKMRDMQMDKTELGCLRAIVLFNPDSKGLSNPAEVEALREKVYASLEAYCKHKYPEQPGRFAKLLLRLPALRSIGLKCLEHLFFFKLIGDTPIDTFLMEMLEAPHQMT
# UniProt P78345: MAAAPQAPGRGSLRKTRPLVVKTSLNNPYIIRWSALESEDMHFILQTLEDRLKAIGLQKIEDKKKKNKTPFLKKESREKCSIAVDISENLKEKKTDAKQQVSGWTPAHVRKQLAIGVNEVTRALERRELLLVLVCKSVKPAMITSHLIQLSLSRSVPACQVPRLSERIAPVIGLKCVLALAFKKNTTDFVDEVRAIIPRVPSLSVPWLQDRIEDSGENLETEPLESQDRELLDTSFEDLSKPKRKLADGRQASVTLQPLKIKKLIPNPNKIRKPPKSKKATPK
# UniProt Q15050: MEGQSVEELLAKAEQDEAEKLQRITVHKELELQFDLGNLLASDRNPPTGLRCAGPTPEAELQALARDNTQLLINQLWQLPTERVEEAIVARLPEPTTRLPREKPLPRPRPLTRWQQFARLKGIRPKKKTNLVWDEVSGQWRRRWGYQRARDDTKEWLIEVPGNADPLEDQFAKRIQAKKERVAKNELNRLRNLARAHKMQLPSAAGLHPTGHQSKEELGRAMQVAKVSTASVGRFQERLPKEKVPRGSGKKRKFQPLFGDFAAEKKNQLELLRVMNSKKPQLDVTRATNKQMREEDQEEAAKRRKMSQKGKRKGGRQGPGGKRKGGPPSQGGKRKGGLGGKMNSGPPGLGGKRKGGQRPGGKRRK
# UniProt O43818: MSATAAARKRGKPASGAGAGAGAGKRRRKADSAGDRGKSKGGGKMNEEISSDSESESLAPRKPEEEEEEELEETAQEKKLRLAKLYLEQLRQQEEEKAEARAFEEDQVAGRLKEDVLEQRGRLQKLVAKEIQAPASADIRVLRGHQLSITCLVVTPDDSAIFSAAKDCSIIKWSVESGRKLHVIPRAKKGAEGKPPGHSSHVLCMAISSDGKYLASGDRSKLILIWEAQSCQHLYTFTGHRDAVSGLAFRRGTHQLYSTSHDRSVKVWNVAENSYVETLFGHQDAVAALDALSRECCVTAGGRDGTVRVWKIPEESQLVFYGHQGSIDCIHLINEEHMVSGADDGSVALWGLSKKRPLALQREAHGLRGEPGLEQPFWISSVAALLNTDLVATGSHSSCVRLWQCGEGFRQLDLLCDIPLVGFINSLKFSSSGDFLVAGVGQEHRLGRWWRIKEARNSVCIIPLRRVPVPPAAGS
# UniProt Q7L523, whole entry, looked up: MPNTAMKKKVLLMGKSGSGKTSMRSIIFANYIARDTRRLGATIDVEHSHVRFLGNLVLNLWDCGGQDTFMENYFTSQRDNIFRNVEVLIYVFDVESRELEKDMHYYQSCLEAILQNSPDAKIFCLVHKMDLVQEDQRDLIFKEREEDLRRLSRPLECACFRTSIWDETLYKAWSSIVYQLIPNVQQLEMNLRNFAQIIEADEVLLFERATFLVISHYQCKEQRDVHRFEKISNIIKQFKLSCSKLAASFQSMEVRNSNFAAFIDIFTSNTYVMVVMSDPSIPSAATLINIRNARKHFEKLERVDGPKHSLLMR
# The list shows a part of the results.
# Compound: CC1Cc2ccccc2N1C(=O)C1CCCN(C1)C(=O)CCl (mixture of isomers) [TRIM25 ligand 11 (diastereomer mixture)]
# Assay: probe-labelled cysteine peptide fold change vs DMSO (competition) (log2 fold change); higher = less target engagement (more negative = stronger competition)
# Settings: 10 µM; THP-1; incubation time: 4 h
# 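Also: competitive chemoproteomic profiling in live THP-1 cells with an iodoacetamide desthiobiotin (IA-DTB) probe, comparing probe-labelled peptide intensities in compound-treated cells against DMSO-treated controls.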
row,Target,probe-labelled cysteine peptide fold change
1,RRAGB_Q5VZM2_185_IFCLVHK (UniProt Q5VZM2),0.162
2,RPS3A_P61247_96_NCLTNFHGMDLTR (UniProt P61247),-0.0433
3,RRP1B_Q14684_286_GRDDCGTFEDTGPLLQFDYK (UniProt Q14684),0.0559
4,RPRD2_Q5VT52_903_ALLDSSENCDR (UniProt Q5VT52),-0.0766
5,RPS11_P62280_60_KCPFTGNVSIR (UniProt P62280),-0.143
6,SAMHD1_Q9Y3Z3_177_QLGGGYYVFPGASHNRFEHSLGVGYLAGCLVHALGEK (UniProt Q9Y3Z3),-0.178
7,RTFDC1_Q9BY42_121_FICPVVGLEMNGR (UniProt Q9BY42),0.0986
8,RPS3A_P61247_111_MCSMVK (UniProt P61247),-0.0252
9,SACS_Q9NZJ4_2182_SDHVAACLR (UniProt Q9NZJ4),0.0426
10,RRP12_Q5JTH9_446_ECVAPHMADIGSVTSSASGPAQSVAK (UniProt Q5JTH9),-0.114
11,RPS15A_P62244_30_QVLIRPCSK (UniProt P62244),0.0505
12,RPS20_P60866_36_VCADLIR (UniProt P60866),-0.0632
13,RTN3_O95197-3_42_SCSSSCAVHDLIFWR (UniProt O95197),-0.124
14,RRBP1_Q9P2E9_1128_LREAEETQSTLQAECDQYR (UniProt Q9P2E9),0.000758
15,RPS29_P62273_39_YGLNMCR (UniProt P62273),-0.106
16,RPP40_O75818_219+235_DLQCPVLQSSELEGTPEVSCR (UniProt O75818),-0.0775
17,RSPRY1_Q96DX4_399_FLNHEGYGIGDDEYSCAYDGCR (UniProt Q96DX4),-0.0549
18,RPS27A_P62979_126_ECPSDECGAGVFMASHFDR (UniProt P62979),-0.128
19,S100A10_P60903_62_DLDQCR (UniProt P60903),-0.0944

# Given as tab-separated lines: part of the list above.
row	Target	probe-labelled cysteine peptide fold change
12	RPS20_P60866_36_VCADLIR (UniProt P60866)	-0.0632
13	RTN3_O95197-3_42_SCSSSCAVHDLIFWR (UniProt O95197)	-0.124
14	RRBP1_Q9P2E9_1128_LREAEETQSTLQAECDQYR (UniProt Q9P2E9)	0.000758

# Following part:

row,Target,probe-labelled cysteine peptide fold change
1,RRP8_O43159_451_AQLSGLQLQPCLYK (UniProt O43159),0.0693
2,SAMHD1_Q9Y3Z3_177_FEHSLGVGYLAGCLVHALGEK (UniProt Q9Y3Z3),0.0483
3,RXRA_P19793_195_CLAMGMK (UniProt P19793),-0.0191
4,RSL1D1_O76021_211_SGSCSAIR (UniProt O76021),0.164
5,SAFB2_Q14151_672_ERLQLECQR (UniProt Q14151),-5.87e-05
6,RPP38_P78345_176_CVLALAFKK (UniProt P78345),-0.368
7,RXRA_P19793_171_DLTYTCR (UniProt P19793),0.103
8,SAE1_Q9UBE0_214_VVFCPVK (UniProt Q9UBE0),0.0407
9,RPS20_P60866_70_KTPCGEGSK (UniProt P60866),0.0322
10,RREB1_Q92766_291_DAMGRPFIQNNPSIPAGFHDLGFTDFSCR (UniProt Q92766),-0.104
11,RRS1_Q15050_52_CAGPTPEAELQALAR (UniProt Q15050),-0.0511
12,RTFDC1_Q9BY42_3_GCDGGTIPK (UniProt Q9BY42),-0.0238
13,RPS12_P25398_69_LVEALCAEHQINLIK (UniProt P25398),0.00756
14,RPS17_P08708_35_VCEEIAIIPSK (UniProt P08708),-0.0889
15,RRP9_O43818_296+297_ECCVTAGGR (UniProt O43818),0.057
16,RRP12_Q5JTH9_673_GCQAEADR (UniProt Q5JTH9),-0.0205
17,RPS6_P62753_100_GCIVDANLSVLNLVIVK (UniProt P62753),-0.12
18,RRAGA_Q7L523_157_LSRPLECACFR (UniProt Q7L523),0.246
19,RRM1_P23921_787_NTAAMVCSLENRDECLMCGS (UniProt P23921),-0.255
